According to patent US20240197722A1, “ANTICANCER COMPOSITION INDUCING CELL SENESCENCE AND CELL DEATH” (OSTEONEUROGEN INC., priority 2021, published 2024):

Legend:
Type in all cases: cell-based
MCF7 = test: CCK-8 cell proliferation assay in MCF7 cells; settings: Homo sapiens; MCF7, CCK-8, 72 hours
Description: (§1) H358 cells were seeded in 96-well plates at a concentration of 3×10^4 cells/well for 24 hours.
(§2) The experimental method was carried out in the same manner as described in Example 2 except for the cells used and the positive control reagent.

PC3 = test: CCK-8 cell proliferation assay in PC3 cells; settings: Homo sapiens, PC-3; PC3, CCK-8, 72 hours
Description: as §1, §2

PC3 cells = test: Caspase-3/7 activity (apoptosis) in PC3 cells; settings: Homo sapiens, PC-3; PC3, Caspase-3/7 activity
Description: Caspase-3/7 activity was measured by using a Caspase-3/7 assay kit (Promega, G8091). […] Thereafter, protein was measured with BCA (Thermo, 23227), and the protein was adjusted to 50 μg per 50 μL of cell lysis buffer. Afterwards, Caspase-3/7 activity was analyzed according to the manufacturer's protocol.

NHLF cells [1] = test: Mitochondrial membrane potential (MTMP) analysis in NHLF; settings: Homo sapiens, read-out: MTMP: IC 50
Description: (i) Mitochondrial membrane potential analysis was performed in the same manner as in Example 1.

NHLF cells [2] = test: LDH cytotoxicity assay in NHLF; settings: Homo sapiens, read-out: LDH: EC 50
Description: (iii) LDH cytotoxicity assay detected LDH release by using an LDH assay kit (Abcam, ab56393). […] Absorbance values were measured at 450 nm in a microplate reader.

IC50 (MCF7): 11.2 µM
IC50 (PC3): 3.84 µM
EC50 (PC3 cells): 13.5 µM
IC50 (NHLF cells [1]): 22.4 µM
Compound: O=C(CCCCCCC(=O)Nc1ccccc1)NO [SAHA, suberoylanilide hydroxamic acid, reference compound]
EC50 (NHLF cells [2]): 115 µM
